The values below are quoted from earlier work in PMC11171525, “Properties and Functional Analysis of Two Chorismate Mutases from Maritime Pine” (Cells, 2024).

The test system of the data set is CMs from basal angiosperms. The following applies: substrate chorismate; ref [30]; cited from earlier work.

On to `C=C(O[C@@H]1C=C(C(=O)O)C=C[C@H]1O)C(=O)O` [chorismate], for which the Kcat was 15 to 22.8 s⁻¹.
